Data reported in patent US20080146606A1, “NOVEL COMPOUNDS” (priority 2006, published 2008).
Structures can show the parent of a compound that is named as a salt. Some of these results come from one statement about several compounds together.

Biological target: T1, Recombinant human IKKβ (residues 5-756) (Homo sapiens, UniProt O14920)
T1 construct: Recombinant human IKKβ (residues 5-756); GST (C); made in house
T1 sequence (O14920 5-756): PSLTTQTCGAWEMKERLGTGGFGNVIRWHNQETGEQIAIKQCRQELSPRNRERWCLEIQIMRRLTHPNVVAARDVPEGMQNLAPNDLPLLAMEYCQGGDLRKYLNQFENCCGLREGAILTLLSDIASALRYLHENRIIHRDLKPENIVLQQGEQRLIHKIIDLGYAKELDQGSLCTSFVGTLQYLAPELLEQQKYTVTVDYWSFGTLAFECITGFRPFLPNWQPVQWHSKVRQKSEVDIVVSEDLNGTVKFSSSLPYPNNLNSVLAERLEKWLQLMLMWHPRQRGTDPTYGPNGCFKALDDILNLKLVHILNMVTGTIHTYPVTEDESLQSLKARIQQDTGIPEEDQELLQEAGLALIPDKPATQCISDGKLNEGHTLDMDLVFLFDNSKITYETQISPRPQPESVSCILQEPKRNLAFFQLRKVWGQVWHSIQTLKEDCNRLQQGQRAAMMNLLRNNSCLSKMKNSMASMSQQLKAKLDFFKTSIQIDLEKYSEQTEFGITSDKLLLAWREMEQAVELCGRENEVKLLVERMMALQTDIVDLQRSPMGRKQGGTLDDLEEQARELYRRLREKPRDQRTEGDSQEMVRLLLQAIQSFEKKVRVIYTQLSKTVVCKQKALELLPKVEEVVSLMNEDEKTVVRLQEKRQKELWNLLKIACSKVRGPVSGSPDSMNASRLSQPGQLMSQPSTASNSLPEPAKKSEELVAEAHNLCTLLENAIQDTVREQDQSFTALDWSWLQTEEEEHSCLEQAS
Test: IKK2 assay (TR-FRET)
Type: biochemical

Structure (SMILES) | pIC50 potency against IKK2
CC(C)(CO)NS(=O)(=O)c1ccc(-c2ccnc3[nH]c(C(F)(F)F)cc23)cc1 [Example 199, N-(2-hydroxy-1,1-dimethylethyl)-4-[2-(trifluoromethyl)-1H-pyrrolo[2,3-b]pyridin-4-yl]benzenesulfonamide] | ≥ 5.0
CS(=O)(=O)Nc1ccc(-c2ccnc3[nH]c(CC(=O)NCC(=O)O)cc23)cc1.O=C(O)C(F)(F)F [Example 26, N-[(4-{4-[(Methylsulfonyl)amino]phenyl}-1H-pyrrolo[2,3-b]pyridin-2-yl)acetyl]glycine trifluoroacetate] | ≥ 5.0
COC(=O)c1cccc(OCc2cc3c(-c4ccc(S(=O)(=O)N5CCCC5)cc4)ccnc3[nH]2)c1.O=C(O)C(F)(F)F [Example 42, methyl 3-[({4-[4-(1-pyrrolidinylsulfonyl)phenyl]-1H-pyrrolo[2,3-b]pyridin-2-yl}methyl)oxy]benzoate trifluoroacetate] | ≥ 5.0
CN(C1CCCCC1)S(=O)(=O)c1ccc(-c2ccnc3[nH]c(C(F)F)cc23)cc1.O=C(O)C(F)(F)F [Example 163, N-cyclohexyl-4-[2-(difluoromethyl)-1H-pyrrolo[2,3-b]pyridin-4-yl]-N-methylbenzenesulfonamidetrifluoroacetate] | ≥ 5.0
O=S(=O)(c1ccc(-c2ccnc3[nH]c(C(F)F)cc23)cc1)N1CCCC1 [Example 15, 2-(Difluoromethyl)-4-[4-(1-pyrrolidinylsulfonyl)phenyl]-1H-pyrrolo[2,3-b]pyridine] | ≥ 5.0
O=C(O)C(F)(F)F.O=S(=O)(c1ccc(-c2ccnc3[nH]c(CNCc4cccnc4)cc23)cc1)N1CCCC1 [Example 36, (3-pyridinylmethyl)({4-[4-(1-pyrrolidinylsulfonyl)phenyl]-1H-pyrrolo[2,3-b]pyridin-2-yl}methyl)amine trifluoroacetate] | ≥ 5.0
NCCNS(=O)(=O)c1ccc(-c2ccnc3[nH]c(CO)cc23)cc1.O=CO [Example 5, Formic acid-N-(2-aminoethyl)-4-[2-(hydroxymethyl)-1H-pyrrolo[2,3-b]pyridin-4-yl]benzenesulfonamide (1:1)] | ≥ 5.0
CC(C)(C)OC(=O)Cc1cc2c(-c3ccc(NS(C)(=O)=O)cc3)ccnc2[nH]1 [Example 12, 1,1-Dimethylethyl(4-{4-[(methylsulfonyl)amino]phenyl}-1H-pyrrolo[2,3-b]pyridin-2-yl)acetate] | ≥ 5.0
O=C(O)C(F)(F)F.O=S(=O)(c1ccc(-c2ccnc3[nH]c(Cn4ccnc4)cc23)cc1)N1CCCC1 [Example 52, 2-(1H-imidazol-1-ylmethyl)-4-[4-(1-pyrrolidinylsulfonyl)phenyl]-1H-pyrrolo[2,3-b]pyridine trifluoroacetate] | ≥ 5.0
O=S(=O)(NC1CCC(O)C1)c1ccc(-c2ccnc3[nH]c(C4CC4)cc23)cc1 (centres unmarked) [Example 217, 4-(2-cyclopropyl-1H-pyrrolo[2,3-b]pyridin-4-yl)-N-(3-hydroxycyclopentyl)benzenesulfonamide] | ≥ 5.0
O=C(O)C(F)(F)F.O=S(=O)(NCCO)c1ccc(-c2ccnc3[nH]c(Cn4ccnn4)cc23)cc1 [Example 94, N-(2-hydroxyethyl)-4-[2-(1H-1,2,3-triazol-1-ylmethyl)-1H-pyrrolo[2,3-b]pyridin-4-yl]benzenesulfonamide trifluoroacetate] | ≥ 5.0
O=S(=O)(NC1CCCCC1)c1ccc(-c2ccnc3[nH]c(Cn4ccnn4)cc23)cc1 [Example 128, N-cyclohexyl-4-[2-(1H-1,2,3-triazol-1-ylmethyl)-1H-pyrrolo[2,3-b]pyridin-4-yl]benzenesulfonamide] | ≥ 5.0
O=S(=O)(N[C@H]1CCC[C@@H]1O)c1ccc(-c2ccnc3[nH]c(C4CC4)cc23)cc1 [Example 191, 4-(2-Cyclopropyl-1H-pyrrolo[2,3-b]pyridin-4-yl)-N-[(1S,2S)-2-hydroxycyclopentyl]-benzenesulfonamide] | ≥ 5.0
CC(=O)NCCNCc1cc2c(-c3ccc(S(=O)(=O)N4CCCC4)cc3)ccnc2[nH]1.O=C(O)C(F)(F)F [Example 33, N-{2-[({4-[4-(1-pyrrolidinylsulfonyl)phenyl]-1H-pyrrolo[2,3-b]pyridin-2-yl}methyl)amino]ethyl}acetamide trifluoroacetate] | ≥ 5.0
O=S(=O)(c1ccc(-c2ccnc3[nH]c(Cn4ncnn4)cc23)cc1)N1CCCC1 [Example 78, 4-[4-(1-Pyrrolidinylsulfonyl)phenyl]-2-(2H-tetrazol-2-ylmethyl)-1H-pyrrolo[2,3-b]pyridine] | ≥ 5.0
Cc1cc2c(-c3ccc(S(=O)(=O)NC4CCCCC4)cc3)ccnc2[nH]1.O=C(O)C(F)(F)F [Example 156, N-cyclohexyl-4-(2-methyl-1H-pyrrolo[2,3-b]pyridin-4-yl)benzenesulfonamidetrifluoroacetate] | ≥ 5.0
Cc1cc2c(-c3ccc(S(=O)(=O)N[C@H](C)CO)cc3)ccnc2[nH]1 [Example 206, N-[(1R)-2-hydroxy-1-methylethyl]-4-(2-methyl-1H-pyrrolo[2,3-b]pyridin-4-yl)benzenesulfonamide] | ≥ 5.0
O=S1(=O)CCC(NS(=O)(=O)c2ccc(-c3ccnc4[nH]c(C(F)F)cc34)cc2)CC1 [Example 65, 4-[2-(Difluoromethyl)-1H-pyrrolo[2,3-b]pyridin-4-yl]-N-(1,1-dioxidotetrahydro-2H-thiopyran-4-yl)benzenesulfonamide] | ≥ 5.0
CC(C)(CO)NS(=O)(=O)c1ccc(-c2ccnc3[nH]c(C4CC4)cc23)cc1 [Example 207, 4-(2-cyclopropyl-1H-pyrrolo[2,3-b]pyridin-4-yl)-N-(2-hydroxy-1,1-dimethylethyl)benzene-sulfonamidetrifluoroacetate (salt)] | ≥ 5.0
CS(=O)(=O)Nc1ccc(-c2ccnc3[nH]c(CC(=O)NCCCCO)cc23)cc1.O=C(O)C(F)(F)F [Example 22, N-(4-hydroxybutyl)-2-(4-{4-[(methylsulfonyl)amino]phenyl}-1H-pyrrolo[2,3-b]pyridin-2-yl)acetamide trifluoroacetate (salt)] | ≥ 5.0
CC(C)(C)OC(=O)NCCNS(=O)(=O)c1ccc(-c2ccnc3[nH]c(C(F)F)cc23)cc1 [Example 185, 1,1-Dimethylethyl{2-[({4-[2-(difluoromethyl)-1H-pyrrolo[2,3-b]pyridin-4-yl]phenyl}sulfonyl)amino]ethyl}carbamate] | ≥ 5.0
CS(=O)(=O)Nc1ccc(-c2ccnc3[nH]c(CC(=O)NCCCO)cc23)cc1.O=C(O)C(F)(F)F [Example 21, N-(3-hydroxypropyl)-2-(4-{4-[(methylsulfonyl)amino]phenyl}-1H-pyrrolo[2,3-b]pyridin-2-yl)acetamide trifluoroacetate (salt)] | ≥ 5.0
CCc1cc2c(-c3ccc(S(=O)(=O)NC4CCS(=O)(=O)C4)cc3)ccnc2[nH]1.O=C(O)C(F)(F)F (centres unmarked) [Example 117, N-(1,1-dioxidotetrahydro-3-thienyl)-4-(2-ethyl-1H-pyrrolo[2,3-b]pyridin-4-yl)benzenesulfonamidetrifluoroacetate] | ≥ 5.0
CC(C)(C)OC(=O)NCCNS(=O)(=O)c1ccc(-c2ccnc3[nH]c(CC(N)=O)cc23)cc1 [Example 4, 1,1-Dimethylethyl{2-[({4-[2-(2-amino-2-oxoethyl)-1H-pyrrolo[2,3-b]pyridin-4-yl]phenyl}sulfonyl)amino]ethyl}carbamate] | ≥ 5.0
O=C(O)C(F)(F)F.O=S(=O)(c1ccc(-c2ccnc3[nH]c(COc4ccccc4)cc23)cc1)N1CCCC1 [Example 43, 2-[(phenyloxy)methyl]-4-[4-(1-pyrrolidinylsulfonyl)phenyl]-1H-pyrrolo[2,3-b]pyridine trifluoroacetate] | ≥ 5.0
Cc1cc2c(-c3ccc(S(=O)(=O)NC(C)C(C)C)cc3)ccnc2[nH]1 (centres unmarked) [Example 250, N-(1,2-dimethylpropyl)-4-(2-methyl-1H-pyrrolo[2,3-b]pyridin-4-yl)benzenesulfonamide] | ≥ 5.0
O=S(=O)(N[C@H]1CCCC[C@H]1O)c1ccc(-c2ccnc3[nH]c(C(F)(F)F)cc23)cc1 (relative stereo) [Example 229, rel-N-[(1R,2S)-2-hydroxycyclohexyl]-4-[2-(trifluoromethyl)-1H-pyrrolo[2,3-b]pyridin-4-yl]benzenesulfonamide] | ≥ 5.0
O=S(=O)(NCC1(O)CCCCC1)c1ccc(-c2ccnc3[nH]c(C(F)(F)F)cc23)cc1 [Example 235, N-[(1-hydroxycyclohexyl)methyl]-4-[2-(trifluoromethyl)-1H-pyrrolo[2,3-b]pyridin-4-yl]benzenesulfonamide] | ≥ 5.0
CC(C)C(C)NS(=O)(=O)c1ccc(-c2ccnc3[nH]c(C4CC4)cc23)cc1 (centres unmarked) [Example 218, 4-(2-cyclopropyl-1H-pyrrolo[2,3-b]pyridin-4-yl)-N-(1,2-dimethylpropyl)ben-zenesulfonamide] | ≥ 5.0
